Results from the supplement of paper PMC8166895.
Structures can show the parent of a compound that is named as a salt. The list shows a part of the results. Most values lie at the level of the controls, where differences are scatter.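 Melting temperature was read by differential scanning fluorimetry in a single-replicate pilot screen of a library of approved drugs and clinical or known-target compounds. Compounds raising the melting point by at least 2 °C were the top stabilizing hits, and negative shifts mean destabilization.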

Tested on: SARS-CoV-2 main protease (Mpro, nsp5)
Test: thermal shift ΔTm of Mpro relative to plate average Tm; higher = stronger thermal stabilization of Mpro (binding)
Conditions: 10 µM; protein concentration 1 µM

SMILES | thermal shift ΔTm of Mpro [°C]
COc1ccc(-c2cc(C(F)F)nn2-c2ccc(S(N)(=O)=O)cc2)cc1F [Deracoxib] | 0.0287
S=C(N/N=C1/CCCc2cccnc21)N1CCN(c2ccccn2)CC1 | -0.073
CC[C@@H]1/C=C(\C)C[C@H](C)C[C@H](OC)[C@H]2O[C@@](O)(C(=O)C(=O)N3CCCC[C@H]3C(=O)O[C@H](/C(C)=C/[C@@H]3CC[C@H](Cl)[C@H](OC)C3)[C@H](C)[C@@H](O)CC1=O)[C@H](C)C[C@@H]2OC [Pimecrolimus] | -0.585
CCCN1CCO[C@@H]2c3cc(O)ccc3OC[C@H]21 | -0.726
O=C(O)c1cc(N(Cc2ccccc2O)Cc2ccccc2O)ccc1O [lavendustin B] | -0.191
Cc1ccc(-n2nccn2)c(C(=O)N2CCN(c3nc4cc(Cl)ccc4o3)CC[C@H]2C)c1 [Suvorexant (MK-4305)] | 0.0275
OC[C@H]1O[C@@H](O[C@@H]2[C@@H](CO)OC(O)(CO)[C@H]2O)[C@H](O)[C@@H](O)[C@H]1O (mixture of isomers) [Lactulose] | 0.578
CCCCC(=O)N(Cc1ccc(-c2ccccc2-c2nnn[nH]2)cc1)[C@H](C(=O)O)C(C)C.CCOC(=O)[C@H](C)C[C@@H](Cc1ccc(-c2ccccc2)cc1)NC(=O)CCC(=O)O | -0.15
O=c1c(O[C@@H]2O[C@H](CO)[C@@H](O)[C@H](O)[C@H]2O[C@@H]2OC[C@@H](O)[C@H](O)[C@H]2O)c(-c2ccc(O)cc2)oc2cc(O)cc(O)c12 [Leucoside] | 0.085
C=CC(=O)Nc1cc(Nc2nccc(-n3cc(CN(C)C)c(-c4ccccc4)n3)n2)c(OC)cc1N1CCOCC1 [Lazertinib] | 0.254
Cc1cc(Nc2nc(N[C@@H](C)c3ncc(F)cn3)ncc2Cl)[nH]n1 | -0.0951
CC(C)(C)Oc1cccc2nc(N)nc(N)c12 | 0.0308
Nc1nc2[nH]cc(CCc3ccc(C(=O)N[C@@H](CCC(=O)O)C(=O)O)cc3)c2c(=O)[nH]1 [Pemetrexed disodium] | 0.224
Nc1nc2[nH]cc(CCc3ccc(C(=O)N[C@@H](CCC(=O)O)C(=O)O)cc3)c2c(=O)[nH]1 [Pemetrexed Disodium Hydrate] | 0.0991
Cc1ccc(S(=O)(=O)Nc2cc(-c3ccc(C#N)s3)ccc2C)cc1 | -0.069
COCCc1ccc(OCC(O)CNC(C)C)cc1 (configuration not stated) [Metoprolol Tartrate] | 0.0373
CCN1CCN(Cc2ccc(Nc3ncc(F)c(-c4cc(F)c5nc(C)n(C(C)C)c5c4)n3)nc2)CC1 | -0.151
CCN1CCN(Cc2ccc(Nc3ncc(F)c(-c4cc(F)c5nc(C)n(C(C)C)c5c4)n3)nc2)CC1 [Abemaciclib] | 0.0109
OCc1ccccn1 [2-(Hydroxymethyl)pyridine] | 0.152
CN(C(=O)c1c(O)c2ccccc2n(C)c1=O)c1ccccc1 [Roquinimex] | 0.00769
CC(C)Cc1ccc(C(C)C(=O)O)cc1 (configuration not stated) [Ibuprofen] | 0.00174
COc1ccc(CN2CCN(C(c3ccc(F)cc3)c3ccc(F)cc3)CC2)c(OC)c1OC [Lomerizine HCl] | -0.264
O=C(c1cncc(Br)c1)N1CCC(N2CCCC2)CC1 | -0.158
COc1ccc(C2=N[C@H](c3ccc(Cl)cc3)[C@H](c3ccc(Cl)cc3)N2C(=O)N2CCNC(=O)C2)c(OC(C)C)c1 [Nutlin-3b] | -0.232
CN(C)CCCOc1ccc(-c2ccc3ncc4c(c3c2)n(C2CCOCC2)c(=O)n4C)cn1 | -0.0739
Cc1cnc(C(=O)O)c[n+]1[O-] [Acipimox] | 0.0713

SMILES | thermal shift ΔTm of Mpro [°C]
O=c1c(O)c(-c2ccc(O)c(O)c2)oc2cc(O)cc(O)c12 [Quercetin] | -0.116
O=c1c(O)c(-c2ccc(O)c(O)c2)oc2cc(O)cc(O)c12 [Quercetin Dihydrate] | -0.213
O=C(OCCOCCO)c1ccccc1Nc1cccc(C(F)(F)F)c1 [Etofenamate] | -0.166
CC1CCCC(C)N1 (configuration not stated) [Lupetidin] | -0.154
O=C(O)c1cc(I)ccc1NC(=O)[C@H](Cc1ccccc1)NCc1ccccc1 | 0.272
NC(=O)[C@@H](N)CCCN=C(N)N [L-Argininamide dihydrochloride] | -0.0939
NC(=O)[C@@H]1CC[C@H](c2ccc(OCc3ccccc3F)cc2)N1 | 0.0441
Nc1c(S(=O)(=O)O)cc(S(=O)(=O)O)c2cccc(O)c12 [CaMKP Inhibitor] | 0.132
C=C(c1ccc(C(=O)O)cc1)c1cc2c(cc1C)C(C)(C)CCC2(C)C [Bexarotene] | 0.0448
C[C@]12CCC(=O)C(O)=C1CC[C@@H]1[C@@H]2CC[C@]2(C)C(=O)CC[C@@H]12 [Formestane] | -0.0669
CN(C)CCCCC(=O)Nc1ccc(NC(=S)NC(=O)c2ccc(C(C)(C)C)cc2)cc1 [Tenovin-6] | -0.0514
CC(C)(C)NCC(O)c1cc(O)cc(O)c1 (configuration not stated) [Terbutaline Sulfate] | 0.448
COc1cc2ncnc(Nc3ccccc3)c2cc1OC | 0.0986
O=c1c2cc(O)c(O)cc2oc2c([C@@H]3O[C@H](CO)[C@@H](O)[C@H](O)[C@H]3O)c(O)cc(O)c12 [Isomangiferin] | 0.437
NNC(=O)c1nn(Cc2ccc(Cl)cc2Cl)c2ccccc12 [Adjudin] | 0.148
CC[N+](CC)(CC)CCOc1cccc(OCC[N+](CC)(CC)CC)c1OCC[N+](CC)(CC)CC [Gallamine Triethiodide] | -0.0781
NCc1ccc(S(N)(=O)=O)cc1 [Mafenide hydrochloride] | 0.0535
CN[C@@H]1[C@H](O[C@H]2[C@H](O[C@H]3[C@H](O)[C@@H](O)[C@H](NC(=N)N)[C@@H](O)[C@@H]3NC(=N)N)O[C@@H](C)[C@]2(O)CO)O[C@@H](CO)[C@H](O)[C@H]1O [Dihydrostreptomycin sulfate] | -0.195
Cc1c[nH]c(/C=C2\C(=O)Nc3ccccc32)c1CCC(=O)O | 0.313
O=C(NCCCNC(=O)c1ccc[nH]c1=O)c1cc(-c2ccccc2)on1 | -0.0597
Cc1ccccc1N=Nc1ccc(NC(=O)c2ccnn2C)c(C)c1 | -0.214
Cn1cc(-c2ccc(S(=O)(=O)n3ccc(/C=C/C(=O)Nc4ccccc4N)c3)cc2)cn1 [4SC-202 tosylate] | 0.275
Cn1cc(-c2ccc(S(=O)(=O)n3ccc(/C=C/C(=O)Nc4ccccc4N)c3)cc2)cn1 | 1.14
CC/C(=C(\c1ccccc1)c1ccc(OCCN(C)C)cc1)c1ccccc1 [Tamoxifen Citrate] | 0.134
CCc1oc2ccccc2c1C(=O)c1cc(Br)c(O)c(Br)c1 [Benzbromarone] | 0.435
NC1=N[C@@](c2cccc(-c3cncnc3)c2)(c2ccnc(C(F)F)c2)c2cccc(F)c21 | -0.451

In another format: results already given.
SMILES	thermal shift ΔTm of Mpro [°C]
O=C(OCCOCCO)c1ccccc1Nc1cccc(C(F)(F)F)c1 [Etofenamate]	-0.166
CC[N+](CC)(CC)CCOc1cccc(OCC[N+](CC)(CC)CC)c1OCC[N+](CC)(CC)CC [Gallamine Triethiodide]	-0.0781

More entries follow:

SMILES | thermal shift ΔTm of Mpro [°C]
COC(=O)[C@]12CCC(C)(C)C[C@H]1[C@H]1C(=O)C=C3[C@@]4(C)C=C(C#N)C(=O)C(C)(C)[C@@H]4CC[C@@]3(C)[C@]1(C)CC2 [Bardoxolone Methyl] | -1.31
CCCCC[C@H](O)/C=C/[C@H]1[C@H](O)CC(=O)[C@@H]1CCCCCCC(=O)O [Alprostadil] | 0.545
CC(=O)Nc1ccc(C(=O)O)cc1 [Acedoben] | 0.0395
C(#Cc1nc2ncccc2nc1OCCN1CCCC1)c1ccccc1 | -0.0265
O=C(O)c1ccccc1 [Benzoic Acid] | -0.095
CC[C@@H]([C@H](C)O)n1ncn(-c2ccc(N3CCN(c4ccc(OC[C@@H]5CO[C@@](Cn6cncn6)(c6ccc(F)cc6F)C5)cc4)CC3)cc2)c1=O [Posaconazole] | -0.13
CN1CCC[C@@H]1CCO[C@](C)(c1ccccc1)c1ccc(Cl)cc1 [Clemastine Fumarate] | 0.00565
CCOc1ccc(NC(C)=O)cc1 [Phenacetin] | -0.0653
O=C(c1ccc(OCCCc2c[nH]cn2)cc1)C1CC1 [Ciproxifan] | -0.154
CC(C)[C@H](N)C(=O)OCC(CO)OCn1cnc2c(=O)[nH]c(N)nc21 (some centres not stated) [Valganciclovir HCl] | 0.119
CC(C(=O)O)c1ccc(C(=O)c2cccs2)cc1 (configuration not stated) [Suprofen] | 0.043
COc1cc2ncnc(Nc3ccc(F)c(Cl)c3)c2cc1OCCCN1CCOCC1 [Gefitinib (ZD1839)] | -0.0742
CN1CCN(c2nc(C3=C(c4c[nH]c5ccccc45)C(=O)NC3=O)c3ccccc3n2)CC1 [Sotrastaurin] | -0.0461
CN(C)c1cccc(-c2c3c(=O)n(-c4ccccc4Cl)[nH]c3cc(=O)n2C)c1 | -0.116
Cc1nc(C#Cc2ccnc(Cl)c2)c(C)n1-c1ccc(OC(F)(F)F)cc1 | -0.284
CN1[C@@H]2CC[C@H]1C[C@@H](OC(=O)C(CO)c1ccccc1)C2 (some centres not stated) [Atropine] | 0.199
OC[C@H]1O[C@@H](c2ccc(Cl)c(Cc3ccc(O[C@H]4CCOC4)cc3)c2)[C@H](O)[C@@H](O)[C@@H]1O | -0.171
CCOc1ccccc1-n1c(C(C)N2CCN(C(=O)COc3ccc(Cl)cc3)CC2)nc2ccccc2c1=O (configuration not stated) [Erastin] | -0.151
COc1ccc(C2CC(c3ccccc3)=NN2c2ccc(S(N)(=O)=O)cc2)cc1 (configuration not stated) | 0.929
Cc1cc(-c2ccc(CC(=O)Nc3ccc(-c4cccnc4)cc3)cc2)ccn1 | -0.0912
Cc1cc(Nc2cc(N3CCN(C)CC3)nc(/C=C/c3ccccc3)n2)n[nH]1 | -0.0421
Cc1cc(Nc2cc(N3CCN(C)CC3)nc(/C=C/c3ccccc3)n2)n[nH]1 [ENMD-2076 L-(+)-Tartaric acid] | 0.00704
COCCOc1ccc2c(c1)ncn2-c1ccc2cccc(N3CCC(N)CC3)c2n1 | -0.127
CCCC(=O)[O-].[Na+] [Sodium butanoate] | 0.181
COC(=O)C1=C(C)NC(C)=C(C(=O)OCC(C)C)C1c1ccccc1[N+](=O)[O-] (configuration not stated) [Nisoldipine] | -0.0216

Some values from the entries so far:
Cc1cc(Nc2cc(N3CCN(C)CC3)nc(/C=C/c3ccccc3)n2)n[nH]1 – thermal shift ΔTm of Mpro [°C]: -0.0421
CN(C)c1cccc(-c2c3c(=O)n(-c4ccccc4Cl)[nH]c3cc(=O)n2C)c1 – thermal shift ΔTm of Mpro [°C]: -0.116
